The text below walks through data of publication PMC9934381.

These are yes or no findings as the source states them, for the method shown. In cells and extracts the contact can be indirect. Some binding calls cover weakened binding; strength is not graded here.

In this test the target is Stimulator of interferon genes (STING), Q86WV6. The test can be described thus: co-IP. The settings on record: remark: other sources report otherwise.

B1: TANK-binding kinase 1 (TBK1), Q9UHD2 1-729 (protein)
chain: MQSTSNHLWLLSDILGQGATANVFRGRHKKTGDLFAIKVFNNISFLRPVDVQMREFEVLKKLNHKNIVKLFAIEEETTTRHKVLIMEFCPCGSLYTVLEEPSNAYGLPESEFLIVLRDVVGGMNHLRENGIVHRDIKPGNIMRVIGEDGQSVYKLTDFGAARELEDDEQFVSLYGTEEYLHPDMYERAVLRKDHQKKYGATVDLWSIGVTFYHAATGSLPFRPFEGPRRNKEVMYKIITGKPSGAISGVQKAENGPIDWSGDMPVSCSLSRGLQVLLTPVLANILEADQEKCWGFDQFFAETSDILHRMVIHVFSLQQMTAHKIYIHSYNTATIFHELVYKQTKIISSNQELIYEGRRLVLEPGRLAQHFPKTTEENPIFVVSREPLNTIGLIYEKISLPKVHPRYDLDGDASMAKAITGVVCYACRIASTLLLYQELMRKGIRWLIELIKDDYNETVHKKTEVVITLDFCIRNIEKTVKVYEKLMKINLEAAELGEISDIHTKLLRLSSSQGTIETSLQDIDSRLSPGGSLADAWAHQEGTHPKDRNVEKLQVLLNCMTEIYYQFKKDKAERRLAYNEEQIHKFDKQKLYYHATKAMTHFTDECVKKYEAFLNKSEEWIRKMLHLRKQLLSLTNQCFDIEEEVSKYQEYTNELQETLPQKMFTASSGIKHTMTPIYPSSNTLVEMTLGMKKLKEEMEGVVKELAENNHILERFGSLTMDGGLRNVDCL
For the molecule B1, the binding result is listed as “binds”.
